# According to patent US20150272191A1, “FORMULAS COMPRISING OPTIMISED AMINO ACID PROFILES” (N.V. NUTRICIA, priority 2012, published 2015):
# System: infants
# Experiment: Indicator amino acid oxidation (IAAO) method: essential amino acid requirement (breakpoint) in formula-fed term infants, and recommended intakes calculated from it
# Assay type: in vivo, human
# Settings: F13CO2 from L[1-13C]phenylalanine indicator, biphasic linear regression crossover model, infants postnatal age <28 days, methionine: diet with excess cysteine (91 mg·kg^−1·d^−1)
row,SMILES,breakpoint (dietary requirement of the test amino acid) [mg/kg/day]
1,"CC[C@H](C)[C@H](N)C(=O)O [Isoleucine, isoleucine]",105
2,"CC(C)C[C@H](N)C(=O)O [Leucine, leucine]",140
3,"NCCCC[C@H](N)C(=O)O [Lysine, lysine]",130
4,"CSCC[C@H](N)C(=O)O [Methionine, methionine]",38
5,"C[C@@H](O)[C@H](N)C(=O)O [Threonine, threonine]",68
6,"N[C@@H](Cc1c[nH]c2ccccc12)C(=O)O [Tryptophan, tryptophan]",15
7,"CC(C)[C@H](N)C(=O)O [Valine, valine]",110
